Experimental data reported in patent publication US20180015100A1, “COMBINATION PRODUCTS FOR THE TREATMENT OF BACTERIAL INFECTIONS AND METHODS OF PRODUCING OR DOSING OF SAME” (priority 2016, published 2018).
≈ marks a conversion by molar mass, not a printed value. For at least one compound, name, drawing or mass did not settle the structure.

Legend:
[1] = test system: ESBL-producing Enterobacteriaceae isolates (panel of nineteen); experiment: MIC of cephalosporins alone or with clavulanate/tazobactam, whole panel; type: cell-based; settings: for ESBL-producing isolates with MIC<8 μg/mL / MICs relative to CLSI/EUCAST MIC breakpoints for the approved dosing regimens: cephalosporin alone; for ESBL-producing isolates with MIC<8 μg/mL: 19 isolates; for MICs relative to CLSI/EUCAST MIC breakpoints for the approved dosing regimens: ESBL-producing Enterobacteriaceae
[2] = test system: Enterobacteriaceae isolates that do not produce ESBLs; settings: several series of ESBL− Enterobacteriaceae isolates; cited from earlier work

SMILES	ESBL-producing isolates with MIC<8 μg/mL [1]	MICs relative to CLSI/EUCAST MIC breakpoints for the approved dosing regimens [1]	MIC90 [2] [µg/mL]	ESBL-producing isolates having an MIC<1 μg/mL ([1]; 19 isolates tested)
C=CC1=C(C(=O)O)N2C(=O)[C@@H](NC(=O)/C(=N\OCC(=O)O)c3csc(N)n3)[C@H]2SC1 [Cefixime, cefixime]	neither cefpodoxime nor cefixime had an MIC<8 μg/mL for any	above the CLSI/EUCAST		
CO/N=C(\C(=O)N[C@@H]1C(=O)N2C(C(=O)O)=C(/C=C\c3scnc3C)CS[C@H]12)c1csc(N)n1 [Cefditoren, cefditoren]			0.5 (≈ 0.987 µM)	
COCC1=C(C(=O)O)N2C(=O)[C@@H](NC(=O)/C(=N\OC)c3csc(N)n3)[C@H]2SC1 [Cefpodoxime, cefpodoxime]	neither cefpodoxime nor cefixime had an MIC<8 μg/mL for any	above the CLSI/EUCAST		1 of 19
